Results: patent US20170189504A1, “NOVEL PEPTIDES AND COMBINATION OF PEPTIDES FOR USE IN IMMUNOTHERAPY AGAINST VARIOUS CANCERS” (immatics biotechnologies GmbH, priority 2015, published 2017)
For some of these results: Expression values are those of the mRNA of the gene that encodes the peptide; a gene is named only where it was looked up.

What was measured:
HLA-A*24 = test: Identification and relative LC-MS quantitation of HLA-A*24-presented tumor-associated peptides on tissue samples (presentation profiles, Tables 14A, 14B, 16, FIG. 1); design: species or system human; key to Presentation score GC / Presentation score NSCLC / Presentation score PCA / Presentation score GB / Presentation score HCC / Presentation score RCC: specifically presented on tumors (++++); very highly over-presented on tumors compared to a panel of normal tissues (+++); highly over-presented on tumors compared to a panel of normal tissues (++); over-presented on tumors compared to a panel of normal tissues (+); settings: for Presentation score HCC: hepatocellular carcinoma (N = 15) vs panel of normal tissues (N = 70); for Presentation score NSCLC: non-small cell lung cancer (N = 91) vs panel of normal tissues (N = 70); for Peptide Presentation on cancer entities: Table 14A, HLA-A*24-binding tumor-associated peptides, cancer entities on which the peptide was found presented
source genes (mRNA) [1] = test: Gene and exon expression of source genes, TCGA tumor samples compared with normal tissue samples (Lonsdale, 2013) (Table 17); design: species or system human; settings: tumor expression more than 2-fold above highest 75% percentile of high and medium risk normal tissues; for Target coverage: over-expression category of source gene, LAML: Acute Myeloid Leukemia (N = 173); for Target coverage: over-expression category of source gene, BLCA: Bladder urothelial carcinoma (N = 408); for Target coverage: over-expression category of source gene, BRCA: Breast cancer (N = 1104); for Target coverage: over-expression category of source gene, CHOL: Cholangiocarcinoma (N = 36); for Target coverage: over-expression category of source gene, KIRC: Clear cell kidney carcinoma (N = 534); for Target coverage: over-expression category of source gene, READ: Colon and rectal adenocarcinoma (N = 167); for Target coverage: over-expression category of source gene, COAD: Colon and rectal adenocarcinoma (N = 462); for Target coverage: over-expression category of source gene, ESCA: Esophageal cancer (N = 185); for Target coverage: over-expression category of source gene, GBM: Glioblastoma multiforme (N = 169); for Target coverage: over-expression category of source gene, LGG: Lower grade glioma (N = 534); for Target coverage: over-expression category of source gene, LUAD: Lung adenocarcinoma (N = 517); for Target coverage: over-expression category of source gene, LUSC: Lung squamous cell carcinoma (N = 503); for Target coverage: over-expression category of source gene, DLBC: Lymphoid neoplasm diffuse large B-cell lymphoma (N = 48); for Target coverage: over-expression category of source gene, OV: Ovarian serous cystadenocarcinoma (N = 309); for Target coverage: over-expression category of source gene, PAAD: Pancreatic ductal adenocarcinoma (N = 179); for Target coverage: over-expression category of source gene, KIRP: Papillary kidney carcinoma (N = 291); for Target coverage: over-expression category of source gene, PRAD: Prostate adenocarcinoma (N = 498); for Target coverage: over-expression category of source gene, SKCM: Skin cutaneous melanoma (N = 473); for Target coverage: over-expression category of source gene, STAD: Stomach adenocarcinoma (N = 415); for Target coverage: over-expression category of source gene, UCEC: Uterine corpus endometrial carcinoma (N = 546)
source genes (mRNA) [2] = test: Expression profiling of source genes by in-house RNASeq of tumor and normal tissues (Table 18, FIG. 2); design: species or system human; key: very highly over-expressed in tumors compared to a panel of normal tissues (+++); highly over-expressed in tumors compared to a panel of normal tissues (++); over-expressed in tumors compared to a panel of normal tissues (+); settings: source gene of peptide; for Expression score NHL: non-Hodgkin lymphoma (N = 10) vs panel of normal tissues; for Expression score SCLC: small cell lung cancer (N = 10) vs panel of normal tissues

Row | Substance | Presentation score HCC (HLA-A*24; HLA-A*24 peptides) | Presentation score NSCLC (HLA-A*24; HLA-A*24 peptides) | Peptide Presentation on cancer entities (HLA-A*24) | Target coverage: over-expression category of source gene, LAML (source genes (mRNA) [1]) | Target coverage: over-expression category of source gene, BLCA (source genes (mRNA) [1]) | Target coverage: over-expression category of source gene, BRCA (source genes (mRNA) [1]) | Target coverage: over-expression category of source gene, CHOL (source genes (mRNA) [1]) | Target coverage: over-expression category of source gene, KIRC (source genes (mRNA) [1]) | Target coverage: over-expression category of source gene, READ (source genes (mRNA) [1]) | Target coverage: over-expression category of source gene, COAD (source genes (mRNA) [1]) | Target coverage: over-expression category of source gene, ESCA (source genes (mRNA) [1]) | Target coverage: over-expression category of source gene, GBM (source genes (mRNA) [1]) | Target coverage: over-expression category of source gene, LGG (source genes (mRNA) [1]) | Target coverage: over-expression category of source gene, LUAD (source genes (mRNA) [1]) | Target coverage: over-expression category of source gene, LUSC (source genes (mRNA) [1]) | Target coverage: over-expression category of source gene, DLBC (source genes (mRNA) [1]) | Target coverage: over-expression category of source gene, OV (source genes (mRNA) [1]) | Target coverage: over-expression category of source gene, PAAD (source genes (mRNA) [1]) | Target coverage: over-expression category of source gene, KIRP (source genes (mRNA) [1]) | Target coverage: over-expression category of source gene, PRAD (source genes (mRNA) [1]) | further results
1 | 281: peptide found in PRKDC (gene looked up) (PYRLIFEKF; listed as Homo sapiens) [compound 281] | +++ | +++ | NSCLC, HCC | A (>=50% of tumors above the cutoff) | B (>= 20% of tumors above the cutoff, but <50%) | A (>=50% of tumors above the cutoff) | C (>=5% of tumors above the cutoff, but <20%) | C (>=5% of tumors above the cutoff, but <20%) | B (>= 20% of tumors above the cutoff, but <50%) | B (>= 20% of tumors above the cutoff, but <50%) | A (>=50% of tumors above the cutoff) | C (>=5% of tumors above the cutoff, but <20%) | B (>= 20% of tumors above the cutoff, but <50%) | B (>= 20% of tumors above the cutoff, but <50%) | A (>=50% of tumors above the cutoff) | C (>=5% of tumors above the cutoff, but <20%) | B (>= 20% of tumors above the cutoff, but <50%) | C (>=5% of tumors above the cutoff, but <20%) | C (>=5% of tumors above the cutoff, but <20%) | C (>=5% of tumors above the cutoff, but <20%) | Target coverage: over-expression category of source gene, KICH (source genes (mRNA) [1]; Kidney chromophobe (N = 66)): C (>=5% of tumors above the cutoff, but <20%); Target coverage: over-expression category of source gene, SKCM (source genes (mRNA) [1]): A (>=50% of tumors above the cutoff); Target coverage: over-expression category of source gene, STAD (source genes (mRNA) [1]): A (>=50% of tumors above the cutoff); Target coverage: over-expression category of source gene, UCEC (source genes (mRNA) [1]): C (>=5% of tumors above the cutoff, but <20%); Expression score BRCA (source genes (mRNA) [2]; BRCA tumors vs panel of normal tissues): +; Expression score CRC (source genes (mRNA) [2]; colorectal cancer (N = 20) vs panel of normal tissues): +; Expression score OSCAR (source genes (mRNA) [2]; esophageal cancer incl. gastric-esophageal junction (N = 11) vs panel of normal tissues): +; Expression score GBC_CCC (source genes (mRNA) [2]; gallbladder adenocarcinoma and cholangiocarcinoma (N = 3) vs panel of normal tissues): +; Expression score GB (source genes (mRNA) [2]; glioblastoma (N = 24) vs panel of normal tissues): +; Expression score NHL (source genes (mRNA) [2]): +; Expression score NSCLC (source genes (mRNA) [2]; non-small cell lung cancer (N = 11) vs panel of normal tissues): +; Expression score OC (source genes (mRNA) [2]; ovarian cancer (N = 12) vs panel of normal tissues): +; Expression score SCLC (source genes (mRNA) [2]): +
2 | 282: peptide found in NUP93 (gene looked up) (KFVDSTFYL; listed as Homo sapiens) [compound 282] | +++ | +++ | GB, GC, NSCLC, HCC | A (>=50% of tumors above the cutoff) | A (>=50% of tumors above the cutoff) | B (>= 20% of tumors above the cutoff, but <50%) | B (>= 20% of tumors above the cutoff, but <50%) | C (>=5% of tumors above the cutoff, but <20%) | A (>=50% of tumors above the cutoff) | A (>=50% of tumors above the cutoff) | A (>=50% of tumors above the cutoff) | A (>=50% of tumors above the cutoff) | A (>=50% of tumors above the cutoff) | B (>= 20% of tumors above the cutoff, but <50%) | A (>=50% of tumors above the cutoff) | A (>=50% of tumors above the cutoff) | A (>=50% of tumors above the cutoff) | B (>= 20% of tumors above the cutoff, but <50%) | B (>= 20% of tumors above the cutoff, but <50%) | A (>=50% of tumors above the cutoff) | Presentation score GC (HLA-A*24; HLA-A*24 peptides, gastric cancer (N = 44) vs panel of normal tissues (N = 70)): +++; Presentation score GB (HLA-A*24; HLA-A*24 peptides, glioblastoma (N = 18) vs panel of normal tissues (N = 70)): +++; Target coverage: over-expression category of source gene, LIHC (source genes (mRNA) [1]; Liver hepatocellular carcinoma (N = 374)): C (>=5% of tumors above the cutoff, but <20%); Target coverage: over-expression category of source gene, SKCM (source genes (mRNA) [1]): A (>=50% of tumors above the cutoff); Target coverage: over-expression category of source gene, STAD (source genes (mRNA) [1]): A (>=50% of tumors above the cutoff); Target coverage: over-expression category of source gene, UCEC (source genes (mRNA) [1]): A (>=50% of tumors above the cutoff); Expression score NHL (source genes (mRNA) [2]): +; Expression score SCLC (source genes (mRNA) [2]): +
